This assay in a line: qHTS Assay for Lipid Storage Modulators in Drosophila S3 Cells.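 On cell number change: cells counted by Cell Tracker Red CMTPX staining in the red channel.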 As to conditions: BODIPY lipid droplet fluorescence, 18-24 h; for cell number change: measured here: cell count max response, cells fed with added oleic acid. The method in brief: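 Laser-scanning cytometry quantifies lipid droplet accumulation (500–530 nm total intensity; droplet/cell object ratio) in oleic acid-fed (400 uM added) Drosophila S3 cells treated with a concentration series. 20 uM Triacsin C defined 100% inhibition.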

[1] abbreviates: measured here: lipid fluorescence (Fed channel) AC50, cells fed with added oleic acid.
[2] abbreviates: measured here: cell number channel AC50, cells fed with added oleic acid.

The other results are listed elsewhere or left out. Shown are side measurements of this screen, not its main read-out; they come without a call. The list favours compounds with an active or inconclusive main result. Words in brackets tell the shape of the fitted curve; partial curves, single points and poor fits give uncertain potencies.

For the compound `CCOC(=O)c1cc(C#N)c(SCC(=O)OC)[nH]c1=O`, the cell number change is -7.49%. Besides, under setting [1], the AC50 was 0.366 µM [falling, partial curve, poor fit].
Consider `CCc1nc(SCC(=O)Nc2ccccc2Cl)n[nH]1`, for which the AC50 under setting [1] is 16.4 µM [falling, partial curve].
Take `CCn1cnc2cc(NCc3nc4ccccc4n3Cc3ccccc3)ccc21`: the cell number change is -19.6%. Also, the AC50 under setting [1] is 25.9 µM [falling, single point].
As for `CCOC(=O)N1CCN(CC(O)COc2cc(C)cc(C)c2)CC1` (stereo not given), the cell number change was 34.8%. Moreover, the AC50 under setting [2] is 16.4 µM [rising, partial curve].
With `O=C(Nc1ccc(Cl)cc1)C1CCCN1C(=O)NCc1ccccc1` (stereo not given), under setting [1], the AC50 was 29.1 µM [rising, single point].
As to `Cc1ccccc1OCC(=O)NNC(=S)NC(=O)c1ccco1`, the cell number change was -10.2%.
`CCCCNC(=O)c1onc(CSc2ccc(Cl)cc2)c1C(=O)O`: the cell number change amounted to 5.03%. For the same compound, under setting [1], the AC50 is 4.61 µM [falling, single point].
In the case of `CCOP(=O)(Cc1ccc(C(C)(C)CC(C)=O)o1)OCC`, the cell number change came to 17.5%. Besides, the AC50 under setting [1] is 29.1 µM [rising, single point].
Take `O=C(Cn1c(SCc2ccccc2)nc2ccccc21)N1CCOCC1`: the cell number change was -22.1%. Under setting [1], the AC50 was 0.206 µM [falling, full curve, poor fit].
As to `Cc1cc(C)c(S(=O)(=O)Nc2ccnc(-c3cccnc3)n2)c(C)c1`, the cell number change was 41.3%. Moreover, the AC50 under setting [2] is 5.8 µM [rising, full curve, poor fit]. Also, the AC50 under setting [1] is 0.517 µM [rising, full curve].
`CCc1ccc(NC(=O)c2noc3c2CCC3)cc1`: the cell number change was 45%. Besides, the AC50 under setting [2] was 20.6 µM [rising, single point].
With `CN1CCCC(CC2Oc3ccccc3Sc3ccccc32)C1` (stereo not given), the cell number change is -14%. Moreover, under setting [2], the AC50 is 0.326 µM [rising, partial curve, poor fit]. Moreover, under setting [1], the AC50 is 18.4 µM [falling, single point].
Take `COc1ccccc1CC(=O)N1CCC(CCC(=O)NC2CC2)CC1`: the cell number change came to 16.7%. Moreover, under setting [2], the AC50 was 6.51 µM [rising, single point].
In the case of `CC(C)(C)NC(=O)COC(=O)c1snc(C(=O)NC2CCCCC2)c1N`, the cell number change was -197%. For the same compound, under setting [2], the AC50 is 29.1 µM [falling, single point]. Moreover, the AC50 under setting [1] is 6.51 µM [rising, single point].
With `CCOC(=O)c1c(/N=C/N(C)C)sc(C(=O)OC)c1C`, the AC50 under setting [1] was 29.1 µM [falling, single point].
Consider `Nc1nonc1NC(=O)CSc1nc2ccccc2s1`, for which the cell number change is -68.3%. In addition, the AC50 under setting [2] was 2.31 µM [falling, partial curve, poor fit]. The AC50 under setting [1] was 1.16 µM [falling, full curve].
For `Cc1cccc(OCC(=O)NCC(=O)N/N=C/c2ccc(O)cc2O)c1`, the cell number change is -29.8%. The AC50 under setting [1] is 16.4 µM [falling, partial curve].
As for `Cc1csc2ncnc(NCCc3ccccn3)c12`, the cell number change is -47%. Moreover, the AC50 under setting [2] was 32.6 µM [falling, partial curve].
On to `COc1ccc(N2CC(C(=O)Nc3ccc([N+](=O)[O-])cc3Br)CC2=O)cc1` (stereo not given), for which the cell number change is 7.5%.
In the case of `COc1c(O)cccc1-c1nnn(CCC(=O)OCC(=O)c2ccccc2)n1`, the cell number change is 0.448%. Also, under setting [1], the AC50 was 23.1 µM [falling, single point].
Turning to `CCCS(=O)(=O)c1nc(S(=O)(=O)c2ccc(C)cc2)c(N2CCN(CC)CC2)s1`, under setting [2], the AC50 was 0.651 µM [rising, single point].
Turning to `COc1ccc(-c2[nH]ncc2CN2CCC(OCc3ccccn3)CC2)c(F)c1`, the cell number change turned out to be 2.32%. Also, the AC50 under setting [1] was 3.26 µM [rising, full curve].
For `COc1ccc(C2OC(=O)C(C)(C)C(=O)C2(C)C)cc1OC` (stereo not given), the cell number change was -8.75%. Also, the AC50 under setting [2] was 0.058 µM [falling, full curve, poor fit].
With `CC(C)(O)C#Cc1ccc(CN2CCCC(CO)(Cc3cccc(Cl)c3)C2)cc1` (stereo not given), the cell number change is -19.7%. Also, under setting [1], the AC50 was 29.1 µM [falling, single point].
For `CN(CC1CCCN(CCc2ccc(Cl)cc2)C1)C(=O)CC(F)(F)F` (stereo not given), the cell number change stood at 23.3%. Also, the concentration at half-maximal activity (AC50) under setting [1] was 9.2 µM [rising, partial curve, poor fit].
For the compound `Cc1ccc(N2C(=O)C3CCCN3C2=S)cc1` (stereo not given), the cell number change was -4.26%. In addition, the AC50 under setting [2] is 0.82 µM [rising, full curve].
`O=C(CCCc1nc(-c2ccc(Cl)cc2)no1)NC1CCCCC1`: the cell number change was determined as 6.09%.
On to `O=C(N/N=C/c1ccccn1)c1ccc([N+](=O)[O-])cc1Cl`, for which the cell number change worked out at 6.93%. The AC50 under setting [1] was 0.58 µM [rising, single point].
For `Cc1ccc(CNc2cnccn2)s1`, the cell number change is 23.4%.
In the case of `CCCCCCC1/C(=N\NC(=O)c2ccccc2)CCC1C(=O)OC` (stereo not given), the cell number change is 14.9%. In addition, the AC50 under setting [1] was 0.731 µM [rising, full curve, poor fit].
For `Nc1ccccc1-c1nc2ccccc2[nH]c1=O`, under setting [1], the AC50 is 6.51 µM [rising, single point].
Still for that read-out and setting: the value for `N#C/C(=C\c1ccc(OCc2ccccc2)cc1)C(=O)Nc1ccc(C(=O)O)cc1` was 29.1 µM [falling, single point].
Turning to `O=C(Nc1ncc(Br)s1)C(Cc1ccccc1)n1cccc1` (stereo not given), the cell number change is -56.4%. In addition, the AC50 under setting [2] is 18.4 µM [falling, single point]. Moreover, under setting [1], the AC50 was 14.6 µM [falling, partial curve].
For the compound `COc1cc(NC(=O)CN2C(=O)NC(c3ccccc3)(c3ccccc3)C2=O)c(C)cc1[N+](=O)[O-]`, the cell number change was 27.1%. For the same compound, under setting [1], the AC50 was 7.31 µM [rising, partial curve].
As to `Cc1ccccc1C(=O)NCC(=O)Nc1ccccc1C(F)(F)F`, the cell number change is 31.7%. The AC50 under setting [2] was 6.51 µM [rising, single point].
`Cc1cc(C)nc(-n2nc(C)cc2NC(=O)c2cccc(S(=O)(=O)N(C)C)c2)n1`: the cell number change is 5.83%.
For `COc1ccc(S(=O)(=O)/C(C#N)=C/Nc2ccc(NC(C)=O)cc2)cc1`, the AC50 by setting is: under setting [2], 6.51 µM [rising, single point]; under setting [1], 3.66 µM [rising, single point].
In the case of `CC(OC(=O)Cn1c(C(F)(F)F)nc2ccccc21)C(=O)N1CCCc2ccccc21` (stereo not given), the cell number change was 55.6%. In addition, the AC50 under setting [2] is 2.31 µM [rising, full curve].
As to `NC(=O)CSc1nnc(-c2ccco2)n1N`, the cell number change was -43.5%. The AC50 under setting [2] is 0.82 µM [falling, full curve]. Also, under setting [1], the AC50 was 20.6 µM [falling, partial curve].
For the compound `CCc1nn(CC(=O)NCCc2ccc(OC)cc2OC)c(=O)c2cc3occc3n12`, the cell number change is -17.1%. Also, the AC50 under setting [1] is 0.13 µM [rising, full curve, poor fit].

(Values after PubChem BioAssay AID2685 (National Center for Advancing Translational Sciences (NCATS), 2010).)
